{"source": "PubChem BioAssay AID720505 (Drosophila RNAi Screening Center, 2013)", "assay": "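Knock-downs that reduce calcium influx once internal stores are emptied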 (primary screen)", "cells": "Drosophila S2R+ cells", "knock-down reagent": "long dsRNA against Drosophila genes", "treatment": "thapsigargin (2 µM) in calcium-free buffer to empty internal stores, then 2 mM calcium added back", "measured": "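Fluo-4 signal in 384-well plates read on a FLIPR after thapsigargin (2 µM, calcium-free) store depletion and 2 mM calcium add-back; unnormalised mean endpoint per well; screen run twice, selected wells retested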", "reading the numbers": "calcium signal: higher = more calcium entry after store depletion", "call rule": "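Knock-downs counted as hits when calcium entry dropped relative to STIM1 positive and Rho1 negative controls present on each plate; roughly 1500 genes called, with reductions of differing size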", "calls": "active = called as lowering calcium entry; inactive = not called", "note": "In all, the deposit lists about 20,000 reagents; below is a random part of those with a known target gene and a result. Of all reagents, about 2,100 (10%) got an active call. 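Raw plate signals without normalisation; calls rest on control-based scores that were not deposited; replicate 2 separates called from uncalled poorly.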 Entries without a mark were called inactive. Names joined by + are all predicted targets of the reagent. Not stated in the record: the amount of reagent, the time to read-out."}
{"target gene": "tn (retired record)", "amplicon": "DRSC05768", "calcium signal, replicate 1": 84.7, "calcium signal, replicate 2": 103}
{"target gene": "tn (retired record)", "amplicon": "DRSC06532", "calcium signal, replicate 1": 129, "calcium signal, replicate 2": 158}
{"target gene": "Dlc90F", "amplicon": "DRSC16649", "calcium signal, replicate 1": 160, "calcium signal, replicate 2": 290}
{"target gene": "CG1774", "amplicon": "DRSC15258", "calcium signal, replicate 1": "65 (active)", "calcium signal, replicate 2": 96}
{"target gene": "CG14615", "amplicon": "DRSC20627", "calcium signal, replicate 1": 115, "calcium signal, replicate 2": 99.8}
{"target gene": "Pdxk", "amplicon": "DRSC10419", "calcium signal, replicate 1": 102, "calcium signal, replicate 2": 94.2}
{"target gene": "flz", "amplicon": "DRSC07109", "calcium signal, replicate 1": 105, "calcium signal, replicate 2": 123}
{"target gene": "mRpS6", "amplicon": "DRSC08470", "calcium signal, replicate 1": 88.6, "calcium signal, replicate 2": 90.1}
{"target gene": "dib", "amplicon": "DRSC08711", "calcium signal, replicate 1": 94.7, "calcium signal, replicate 2": 129}
{"target gene": "elgi", "amplicon": "DRSC10242", "calcium signal, replicate 1": 156, "calcium signal, replicate 2": 82.3}
{"target gene": "PIG-L", "amplicon": "DRSC15577", "calcium signal, replicate 1": 130, "calcium signal, replicate 2": 87.8}
{"target gene": "Mst57Dc", "amplicon": "DRSC16745", "calcium signal, replicate 1": 165, "calcium signal, replicate 2": 140}
{"target gene": "CG15036", "amplicon": "DRSC17968", "calcium signal, replicate 1": 287, "calcium signal, replicate 2": 74}
{"target gene": "CG10973", "amplicon": "DRSC09813", "calcium signal, replicate 1": 129, "calcium signal, replicate 2": 88}
{"target gene": "CG16700", "amplicon": "DRSC19755", "calcium signal, replicate 1": 105, "calcium signal, replicate 2": 113}
{"target gene": "Tbh", "amplicon": "DRSC18723", "calcium signal, replicate 1": 189, "calcium signal, replicate 2": 160}
{"target gene": "CG7333", "amplicon": "DRSC16229", "calcium signal, replicate 1": 234, "calcium signal, replicate 2": 170}
{"target gene": "ATPsynCF6L", "amplicon": "DRSC08232", "calcium signal, replicate 1": 103, "calcium signal, replicate 2": 91.3}
{"target gene": "a5", "amplicon": "DRSC00798", "calcium signal, replicate 1": 198, "calcium signal, replicate 2": 144}
{"target gene": "Prosbeta2R2", "amplicon": "DRSC12193", "calcium signal, replicate 1": 96.9, "calcium signal, replicate 2": 87.2}
{"target gene": "Whamy", "amplicon": "DRSC14574", "calcium signal, replicate 1": 125, "calcium signal, replicate 2": 119}
{"target gene": "Acsf2", "amplicon": "DRSC02172", "calcium signal, replicate 1": "65.8 (active)", "calcium signal, replicate 2": 172}
{"target gene": "CG9953", "amplicon": "DRSC11106", "calcium signal, replicate 1": 76.3, "calcium signal, replicate 2": 84.5}
{"target gene": "Tcs6 + PIG-P", "amplicon": "DRSC14893", "calcium signal, replicate 1": 279, "calcium signal, replicate 2": 161}
{"target gene": "Ssl1", "amplicon": "DRSC11634", "calcium signal, replicate 1": "61.3 (active)", "calcium signal, replicate 2": 115}
{"target gene": "Not10", "amplicon": "DRSC14129", "calcium signal, replicate 1": 110, "calcium signal, replicate 2": 113}
{"target gene": "SsRbeta", "amplicon": "DRSC11290", "calcium signal, replicate 1": 123, "calcium signal, replicate 2": 88.9}
{"target gene": "Tet", "amplicon": "DRSC08550", "calcium signal, replicate 1": "53.7 (active)", "calcium signal, replicate 2": 120}
{"target gene": "Tet", "amplicon": "DRSC08646", "calcium signal, replicate 1": 71.2, "calcium signal, replicate 2": 114}
{"target gene": "CG12511", "amplicon": "DRSC02171", "calcium signal, replicate 1": 111, "calcium signal, replicate 2": 86.2}
{"target gene": "Ak6", "amplicon": "DRSC07274", "calcium signal, replicate 1": 113, "calcium signal, replicate 2": 234}
{"target gene": "CG42264", "amplicon": "DRSC18074", "calcium signal, replicate 1": 212, "calcium signal, replicate 2": 98.2}
{"target gene": "CG42264", "amplicon": "DRSC18075", "calcium signal, replicate 1": 154, "calcium signal, replicate 2": 118}
{"target gene": "CG18324", "amplicon": "DRSC06721", "calcium signal, replicate 1": 267, "calcium signal, replicate 2": 167}
{"target gene": "kkv", "amplicon": "DRSC12315", "calcium signal, replicate 1": "74.5 (active)", "calcium signal, replicate 2": 118}
